According to paper PMC5045193:
Results are given in words; binding and its absence hold for the method and conditions named. Binding seen in cells or lysates may run through a third protein. Some entries that bind do so weakly or less than the wild type. Tags and fused reporters may be left off the sequences shown.

T1: RPN-12-GFP (C. elegans) (UniProt Q23449)
T1 sequence: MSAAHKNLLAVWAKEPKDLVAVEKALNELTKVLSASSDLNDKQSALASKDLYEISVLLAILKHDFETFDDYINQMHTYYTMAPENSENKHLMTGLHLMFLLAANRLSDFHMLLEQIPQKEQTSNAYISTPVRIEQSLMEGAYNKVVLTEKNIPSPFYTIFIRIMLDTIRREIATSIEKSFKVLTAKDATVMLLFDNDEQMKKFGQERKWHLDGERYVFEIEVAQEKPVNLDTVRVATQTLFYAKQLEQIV

T2: PAB-1-GFP (C. elegans) (UniProt Q9U302)
T2 sequence: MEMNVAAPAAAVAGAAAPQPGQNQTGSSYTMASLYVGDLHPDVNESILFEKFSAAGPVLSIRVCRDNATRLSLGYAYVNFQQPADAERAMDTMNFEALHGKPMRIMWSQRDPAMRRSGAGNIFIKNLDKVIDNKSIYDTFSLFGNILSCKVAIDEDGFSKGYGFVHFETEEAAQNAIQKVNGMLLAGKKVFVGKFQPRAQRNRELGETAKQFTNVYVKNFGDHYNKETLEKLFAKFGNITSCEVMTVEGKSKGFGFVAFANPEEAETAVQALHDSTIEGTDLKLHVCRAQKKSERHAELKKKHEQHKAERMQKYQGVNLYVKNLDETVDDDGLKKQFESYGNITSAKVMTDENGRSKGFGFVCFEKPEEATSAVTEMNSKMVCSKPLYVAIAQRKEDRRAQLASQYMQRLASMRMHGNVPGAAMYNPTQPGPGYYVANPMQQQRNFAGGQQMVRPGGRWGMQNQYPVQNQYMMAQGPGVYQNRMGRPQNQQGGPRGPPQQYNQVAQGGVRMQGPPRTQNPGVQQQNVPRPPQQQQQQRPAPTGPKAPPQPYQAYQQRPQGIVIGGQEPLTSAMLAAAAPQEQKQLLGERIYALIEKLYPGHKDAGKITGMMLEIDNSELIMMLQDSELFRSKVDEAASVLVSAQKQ

T3: SZY-20-GFP-3xFLAG (C. elegans) (UniProt G5EGU9)
T3 sequence: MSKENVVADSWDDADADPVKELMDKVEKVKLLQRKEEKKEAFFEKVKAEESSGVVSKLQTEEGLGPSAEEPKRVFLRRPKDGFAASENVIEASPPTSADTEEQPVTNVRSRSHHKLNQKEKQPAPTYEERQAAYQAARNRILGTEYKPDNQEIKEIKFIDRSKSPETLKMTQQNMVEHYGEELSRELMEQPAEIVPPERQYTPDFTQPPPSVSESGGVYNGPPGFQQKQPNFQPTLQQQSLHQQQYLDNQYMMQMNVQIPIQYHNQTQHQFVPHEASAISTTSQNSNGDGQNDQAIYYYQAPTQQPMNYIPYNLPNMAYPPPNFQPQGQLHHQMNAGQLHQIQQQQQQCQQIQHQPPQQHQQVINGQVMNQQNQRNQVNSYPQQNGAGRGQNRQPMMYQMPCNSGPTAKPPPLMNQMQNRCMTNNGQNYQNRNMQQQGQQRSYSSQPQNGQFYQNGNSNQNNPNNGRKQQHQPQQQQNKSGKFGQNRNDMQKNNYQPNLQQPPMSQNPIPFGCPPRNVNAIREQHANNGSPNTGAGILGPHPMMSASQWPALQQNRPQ

B1: SZY-20 (protein, UniProt G5EGU9 1-558)
chain: MSKENVVADSWDDADADPVKELMDKVEKVKLLQRKEEKKEAFFEKVKAEESSGVVSKLQTEEGLGPSAEEPKRVFLRRPKDGFAASENVIEASPPTSADTEEQPVTNVRSRSHHKLNQKEKQPAPTYEERQAAYQAARNRILGTEYKPDNQEIKEIKFIDRSKSPETLKMTQQNMVEHYGEELSRELMEQPAEIVPPERQYTPDFTQPPPSVSESGGVYNGPPGFQQKQPNFQPTLQQQSLHQQQYLDNQYMMQMNVQIPIQYHNQTQHQFVPHEASAISTTSQNSNGDGQNDQAIYYYQAPTQQPMNYIPYNLPNMAYPPPNFQPQGQLHHQMNAGQLHQIQQQQQQCQQIQHQPPQQHQQVINGQVMNQQNQRNQVNSYPQQNGAGRGQNRQPMMYQMPCNSGPTAKPPPLMNQMQNRCMTNNGQNYQNRNMQQQGQQRSYSSQPQNGQFYQNGNSNQNNPNNGRKQQHQPQQQQNKSGKFGQNRNDMQKNNYQPNLQQPPMSQNPIPFGCPPRNVNAIREQHANNGSPNTGAGILGPHPMMSASQWPALQQNRPQ
B2: ATX-2 (protein, UniProt G5ED29 1-959)
chain: MSTPTGLPALNGDVLSAINDMIGRVIIINTTDKKRYSGVLGAVSQDFDFGMQCVVEITKENENNLLRTESECRDKMVFHYSDIVDFAYVTQEIKKQHAVSKFVTDRQYHGDTPIEGEELQEWNGGEEDGLGGSIEDDVVVAGGQTAARRSNNHNNGTGWSVNDMFAANEKMNVVSTFKEDLTQYTTVEVVGTDEDRARAERLAREIESNSSSKFMANLENDDDERDLDKITRQEDFENGNGRKRNNNSFNQQQQQRRNPNIAPNGQPVNRRAEGLRGDRRNSGSSSANNSRYGAPAAAQQNYSQNQQQQQGQKGYRRQNEENDWQMAKGKGQNQGHDHSFRQQQKQMLDPRPNNNVKPADDKAQSATTATAAAGGSRVTDLKNWGNEFSIATAPKDQAPAVPAGNSGSAWNRGPPSSLVAKGSSNESTPPPTTNGEEAETKKEEAPSTSVDVAAAPVQNVQNDAEKHQEDDNVSVTSENDSVITSKSSSFKFNINAPEFKPRVAPATPTATTPVQNEYHPQQQPHPAMMAPQQGPPAPGMGMVPPHMGGPQNQGQPPMMMWQQTGQQQQGGGGYPQNHQFPIQHVPMQGVPGQMYGPGAATPVTVAQQPNQQHQVPTSAAGGQNHQLRDGEYREKQPLYMPYGPPQMVPVTSQQFYHSQYQGQMQQAAPYQMKMMPQQAPQGAYQQRYQQPQVYMMPPQGQQQQPRYQGPPPPQQQQQQQPQQQQFSGEQSRPQSHPNSQPTTPGPRGELPKMSGAPQNGNMQAESSSNASHSGSTSSQSGQRSGSPPGAVPPPPPPQQQHQQQQHPPHHAPPHVGAPPPQMMQQQQQHIQQYMVMQGPHQMHPQIPNYYQQPQQVFYPMIMPQQMPMQQNQHPQQSLMGERSDQGFPTSGYFDYRTMPNYQQQQQQQQQQMHRQNSLPQQFQGNQGVNPSGQQSGPPPPPPPSQQGTPRDQQHSQSPP

Columns and labels:
RPN-12-GFP (C. elegans) = target: T1, RPN-12-GFP (C. elegans); assay: co-IP; anti-GFP IP from embryonic lysates of strains expressing GFP fused to the C-terminus of SZY-20, PAB-1, ATX-2 or RPN-12; N2 and RPN-12-GFP as negative controls; western blot
PAB-1-GFP (C. elegans) = target: T2, PAB-1-GFP (C. elegans); assay: as above
[1] = target: T3, SZY-20-GFP-3xFLAG (C. elegans); assay: co-IP; anti-GFP IP from SZY-20-GFP embryonic lysates mixed with N2, szy-20(bs52) or atx-2(ne4297) lysates; western blot

Binder	binding (RPN-12-GFP (C. elegans))	binding (PAB-1-GFP (C. elegans))	binding [1]
B1	no binding	binds	binds
B2	no binding	binds	
